Experimental findings from PMC8803338 are described below.

Amino acid sequences for entries named in this document (tags omitted). A change or cut given only in a name is not applied to a line headed by its entry.
UniProt Q9QZS3: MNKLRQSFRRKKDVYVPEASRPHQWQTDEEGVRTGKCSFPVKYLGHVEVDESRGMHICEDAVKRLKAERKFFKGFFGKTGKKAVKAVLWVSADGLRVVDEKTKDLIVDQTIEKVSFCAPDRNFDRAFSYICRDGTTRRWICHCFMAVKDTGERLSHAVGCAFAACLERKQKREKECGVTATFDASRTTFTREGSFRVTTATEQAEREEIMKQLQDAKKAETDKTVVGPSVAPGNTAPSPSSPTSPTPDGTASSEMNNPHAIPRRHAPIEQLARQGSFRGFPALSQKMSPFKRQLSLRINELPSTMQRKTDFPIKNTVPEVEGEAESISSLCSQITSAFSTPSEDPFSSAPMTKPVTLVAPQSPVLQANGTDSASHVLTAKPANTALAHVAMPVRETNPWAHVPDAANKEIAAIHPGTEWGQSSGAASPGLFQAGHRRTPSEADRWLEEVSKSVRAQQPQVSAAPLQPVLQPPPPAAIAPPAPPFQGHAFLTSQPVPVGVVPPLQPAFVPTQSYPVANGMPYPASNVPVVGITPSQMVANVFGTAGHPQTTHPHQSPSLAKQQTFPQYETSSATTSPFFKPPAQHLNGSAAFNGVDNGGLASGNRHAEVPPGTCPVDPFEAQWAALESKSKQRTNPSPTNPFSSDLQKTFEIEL
UniProt O88990: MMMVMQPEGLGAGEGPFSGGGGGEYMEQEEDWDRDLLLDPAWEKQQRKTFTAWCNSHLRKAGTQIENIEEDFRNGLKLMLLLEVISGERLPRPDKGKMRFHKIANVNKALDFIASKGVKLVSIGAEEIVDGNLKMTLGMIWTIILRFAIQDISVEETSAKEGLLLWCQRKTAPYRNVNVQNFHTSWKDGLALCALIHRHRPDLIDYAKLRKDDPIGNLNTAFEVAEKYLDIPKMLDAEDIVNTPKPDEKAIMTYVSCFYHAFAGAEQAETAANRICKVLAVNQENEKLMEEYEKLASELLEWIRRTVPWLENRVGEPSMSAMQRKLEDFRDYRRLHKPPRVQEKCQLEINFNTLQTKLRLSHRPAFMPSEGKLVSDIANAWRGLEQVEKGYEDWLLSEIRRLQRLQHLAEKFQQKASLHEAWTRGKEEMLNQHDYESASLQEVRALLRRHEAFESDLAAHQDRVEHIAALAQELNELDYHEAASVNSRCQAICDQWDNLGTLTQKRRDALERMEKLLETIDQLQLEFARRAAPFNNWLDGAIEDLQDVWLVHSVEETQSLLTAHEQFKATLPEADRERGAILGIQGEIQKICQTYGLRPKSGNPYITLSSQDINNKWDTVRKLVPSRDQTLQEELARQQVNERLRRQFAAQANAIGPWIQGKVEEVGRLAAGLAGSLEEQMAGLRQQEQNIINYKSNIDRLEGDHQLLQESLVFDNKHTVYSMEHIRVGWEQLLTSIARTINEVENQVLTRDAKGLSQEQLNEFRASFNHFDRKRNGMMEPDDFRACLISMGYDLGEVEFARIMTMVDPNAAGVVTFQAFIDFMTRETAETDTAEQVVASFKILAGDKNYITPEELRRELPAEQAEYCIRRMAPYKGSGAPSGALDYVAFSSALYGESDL
UniProt Q9JI91: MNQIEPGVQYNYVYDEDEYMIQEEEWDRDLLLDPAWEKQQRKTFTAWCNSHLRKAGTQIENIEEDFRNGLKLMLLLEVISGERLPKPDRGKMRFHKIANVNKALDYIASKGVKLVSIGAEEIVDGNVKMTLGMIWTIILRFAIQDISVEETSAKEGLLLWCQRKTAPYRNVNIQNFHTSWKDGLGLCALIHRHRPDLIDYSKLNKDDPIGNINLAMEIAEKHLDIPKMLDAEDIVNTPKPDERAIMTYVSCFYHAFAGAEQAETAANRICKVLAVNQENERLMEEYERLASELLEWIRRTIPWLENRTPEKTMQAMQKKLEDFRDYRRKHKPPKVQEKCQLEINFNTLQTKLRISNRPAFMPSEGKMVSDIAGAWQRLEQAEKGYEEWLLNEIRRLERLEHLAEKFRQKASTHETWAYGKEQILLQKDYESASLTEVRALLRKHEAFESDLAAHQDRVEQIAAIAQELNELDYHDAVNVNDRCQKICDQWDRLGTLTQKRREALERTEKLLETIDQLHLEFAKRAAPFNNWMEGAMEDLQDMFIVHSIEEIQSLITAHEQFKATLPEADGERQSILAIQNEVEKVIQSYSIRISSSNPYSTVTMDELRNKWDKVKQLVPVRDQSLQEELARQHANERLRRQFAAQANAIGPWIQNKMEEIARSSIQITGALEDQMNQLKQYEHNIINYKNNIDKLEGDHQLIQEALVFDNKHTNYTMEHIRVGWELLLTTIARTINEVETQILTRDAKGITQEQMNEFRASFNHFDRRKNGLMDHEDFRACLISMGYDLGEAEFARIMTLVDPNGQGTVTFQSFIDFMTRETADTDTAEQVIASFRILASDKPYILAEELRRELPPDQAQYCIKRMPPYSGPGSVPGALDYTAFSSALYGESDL

This test deals with Myc-Numb66 (UniProt Q9QZS3). Briefly: co-IP; AD293 cells cotransfected with Myc-tagged and EGFP-tagged plasmids, harvested 24 hours after transfection; NP-40 lysis buffer, anti-Myc-Tag, Protein A/G beads, Western blot. (In general: In western blotting, separated proteins are transferred to a membrane and probed.)

Results are given in words; binding and its absence hold for the method and conditions named. In cells and extracts the contact can be indirect.

Regarding EGFP-ACTN3 (from UniProt O88990 1-900), the binding result is on record as “no binding”.
Next, EGFP-ACTN2 (from UniProt Q9JI91 1-894): “no binding”.
